# Test results reported in PubChem BioAssay AID1347076 (National Center for Advancing Translational Sciences (NCATS), 2019).
# About 13,000 (3.2%) of roughly 400,000 compounds were called active. The shares of active, inactive and inconclusive entries below differ from those in the screen. Calls follow the shape of the dose curve; as a rule, active = well fitted cell-killing curve with a large enough effect; inconclusive = small, poorly fitted or top-dose-only effect, or effect the other way; inactive = flat fitted curve, though single readings scatter. A potency beside an inconclusive call is a rough fit, not a confirmed value.
# Assay: qHTS assay for MDR1-selective chemotherapeutics: Primary screen using the drug-selected MDR subline cells KB-V1; also: nearly all actives have a fitted effect of over 60% in size
# Conditions: KB-V1 MDR cells viability, CellTiter-Glo, 72 h; activity change, negative = cytotoxicity: at 46.1 µM (top of the series)
# Procedure, shortened: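 Cytotoxicity toward P-gp-expressing KB-V1 cells was determined as loss of CellTiter-Glo luminescence after 72 h at 37 degrees C. Compounds were tested in quantitative HTS format across a concentration range, with curves fitted to normalized data.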
# % is scaled to controls: 0 for no effect and ±100 for the full control effect; potency is read from the fitted curve at half-maximal effect.
SMILES,"activity change, negative = cytotoxicity",Potency
COc1ccc(N(C(=O)c2ccncc2)S(=O)(=O)c2ccc3c4c(cccc24)C(=O)N3C)cc1,inactive: 0%,–
CC1CC1C(=O)Nc1cc(S(=O)(=O)N2CCOCC2)ccc1N1CCCC1 (stereo not drawn),inactive: -13.4%,–
O=C(O)C1CCN(S(=O)(=O)c2cccc3nsnc23)CC1,–,"inconclusive: 25.9 µM [rising, single point]"
CC(C)Cc1csc(NC(=O)c2ccc(Cl)cc2)c1C(=O)O,–,"inconclusive: 29.1 µM [cytotoxic, single point]"
CS(=O)(=O)Nc1cccc(-c2cc(NC=O)c3ncc(-c4ccc(F)cc4)n3c2)c1,–,"inconclusive: 29.1 µM [cytotoxic, single point]"
O=C(CCN=C1NS(=O)(=O)c2ccccc21)N1CCc2ccccc2C1,inactive: -14.8%,–
CCSc1nnc(C)c2ccccc12,–,"inconclusive: 29.1 µM [rising, single point]"
CCCCn1cnc2cc(NCc3ccc(OCC)cc3)ccc21,inactive: -10.2%,–
COCCNC(=O)c1onc(CSc2cc(C)cc(C)c2)c1C(=O)NCCOC,inconclusive: 1.27%,–
COc1cccc(C(=O)N/N=c2\sc3ccccc3n2C)c1,–,"inconclusive: 23.1 µM [cytotoxic, single point]"
C[C@@H](NC(=O)/C(C#N)=C/c1ccc(O)c(O)c1)c1ccccc1,–,"inconclusive: 29.1 µM [cytotoxic, single point]"
CC(=O)NC(CC(C)C)C(=O)NC(Cc1ccccc1)C(=O)CCl (stereo not drawn),inactive: -8.03%,–
CSc1nc2ccccc2cc1/C=C(\C#N)c1ccc(Cl)c(Cl)c1,inactive: -7.63%,–
CC1CCCC(NC(=O)Cn2cc(Br)ccc2=O)C1C (stereo not drawn),–,"inconclusive: 16.4 µM [cytotoxic, partial curve]"
CC(C)(C)c1nc2ccccc2c2nnc(SCC(=O)Nc3nc4ccccc4s3)n12,–,"inconclusive: 16.4 µM [cytotoxic, partial curve]"
CC(C)(C)S(=O)(=O)N1Cc2cc(CO)cc(CCO)c2[C@@H]1CCO,inactive: 0.0002%,–
O=C(Nc1ccc(Br)cc1F)c1ccc2c(c1)N(Cc1ccccc1)C(=O)CS2=O (stereo not drawn),–,"inconclusive: 29.1 µM [cytotoxic, single point]"
O=C(NCCCN1CCOCC1)c1ccccc1N1C(=O)[C@@H]2Cc3c([nH]c4ccccc34)C(c3ccc(F)cc3)N2C1=O (stereo partly drawn),inactive: 8.67%,–
CCCCOc1ccc(CSCCNC(=S)Nc2ccccc2)cc1,–,"inconclusive: 29.1 µM [cytotoxic, single point]"
Oc1cc(CNC2CCCCC2)c(O)cc1CNC1CCCCC1,inactive: -3.72%,–
C=CCNC(=S)Nc1sc2c(c1C(=O)OCC)CC(C(C)C)OC2 (stereo not drawn),–,"inconclusive: 29.1 µM [cytotoxic, single point]"
O=C(N/N=C/C=C/c1ccccc1[N+](=O)[O-])c1cccs1,–,"inconclusive: 18.4 µM [cytotoxic, single point]"
Cc1csc(CCc2nc(C)cs2)n1,–,"inconclusive: 20.6 µM [rising, single point]"

SMILES,"activity change, negative = cytotoxicity",Potency
COc1ccc(OC)c(CNc2ccc3c(c2)CCC3)c1,inactive: 1.31%,–
O=C(Oc1ccc2c3c(c(=O)oc2c1)CCCC3)c1ccco1,inactive: -27.1%,–
CCOc1ccc2oc(C(=O)N(Cc3nnc(-c4ccccc4Cl)o3)C3CC3)c(C)c2c1,–,"inconclusive: 9.2 µM [cytotoxic, partial curve]"
O=C(CC[C@H]1O[C@@H](n2cnc3c(NC(=O)c4ccccc4)ncnc32)[C@H](O)[C@@H]1O)NCc1cccc2ccccc12,inactive: 28.9%,–
CCCCNC(=O)C1CCN(c2nc(C)cc(C)n2)CC1,inactive: -10.4%,–
COc1ccc(OC)c(NC(=O)c2ccno2)c1,–,"inconclusive: 29.1 µM [rising, single point]"
Cc1cccc(C)c1NCc1nnc(SCC(=O)Nc2nc(-c3ccccc3)cs2)n1-c1ccccc1,–,"inconclusive: 2.59 µM [cytotoxic, full curve, poor fit]"
Nc1nc(CSc2nnnn2-c2ccccc2)nc(Nc2ccccc2)n1,–,"inconclusive: 4.11 µM [cytotoxic, partial curve, poor fit]"
CC1CN(C(=O)c2ccccc2)C(=Nc2cccc(S(=O)(=O)N(C)C)c2)S1 (stereo not drawn),–,"inconclusive: 13 µM [cytotoxic, partial curve, poor fit]"
CCC(c1nnnn1Cc1ccccc1)N1CCN(c2ccc(OC)cc2)CC1 (stereo not drawn),–,"inconclusive: 20.6 µM [cytotoxic, single point]"
COc1cccc(CNC(=O)c2ccc(F)c(S(=O)(=O)N3CCCCC3)c2)c1,–,"inconclusive: 11.6 µM [cytotoxic, partial curve]"
CCN(CC)S(=O)(=O)c1cccc(C(=O)N/N=C/c2cccc(O)c2O)c1,inactive: -21.6%,–
Cn1c(SCC(=O)NC2CCCCC2)nnc1-c1ccccc1O,–,"inconclusive: 1.84 µM [cytotoxic, partial curve, poor fit]"
O=C(CC1C(=O)N(c2ccc(F)cc2)C(=O)N1Cc1ccc2c(c1)OCO2)Nc1ccc(Cl)cc1 (stereo not drawn),inactive: -12.8%,–
CCCc1cnc(Nc2nc(C(N)Cc3ccc(C(F)(F)F)cc3)cs2)nc1 (stereo not drawn),–,"inconclusive: 29.1 µM [cytotoxic, single point]"
Cc1c(NC(=O)c2ccc(=O)oc2)c(=O)n(-c2ccccc2)n1C,–,"inconclusive: 18.4 µM [cytotoxic, single point]"
CC(C)c1ccc(O)c(C(=O)c2cnn(-c3ccccc3)c2)c1,inactive: -1.48%,–
O=C(CCl)Nc1ccccc1C(=O)NCc1ccccc1,–,"inconclusive: 18.4 µM [cytotoxic, single point]"
Cc1ccc(Sc2ncccc2C(=O)NCC(c2ccc(F)cc2)N2CCOCC2)c(C)c1 (stereo not drawn),–,"inconclusive: 13 µM [cytotoxic, single point]"
O=C(CSc1nc2ccccc2[nH]1)Nc1cc(C(F)(F)F)ccc1N1CCOCC1,–,"inconclusive: 20.6 µM [cytotoxic, single point]"
CCOC(=O)C1(C)CCN1C(=O)COc1ccc(C(C)(C)C)cc1 (stereo not drawn),inactive: 2.44%,–
C/C(=N\NC(=O)COc1ccc(C)cc1[N+](=O)[O-])c1ccc2c(c1)OCCO2,–,"inconclusive: 20.6 µM [cytotoxic, partial curve]"
CC(=O)C(Sc1ncnc2sc3c(c12)CCCC3)C(C)=O,–,"inconclusive: 23.1 µM [cytotoxic, single point]"

# Filtered by structure: the entries above containing a nitro group on carbon.
SMILES,"activity change, negative = cytotoxicity",Potency
O=C(N/N=C/C=C/c1ccccc1[N+](=O)[O-])c1cccs1,–,"inconclusive: 18.4 µM [cytotoxic, single point]"
C/C(=N\NC(=O)COc1ccc(C)cc1[N+](=O)[O-])c1ccc2c(c1)OCCO2,–,"inconclusive: 20.6 µM [cytotoxic, partial curve]"

# (further entries)

SMILES,"activity change, negative = cytotoxicity",Potency
CC(C)C[C@@H](CN1CCCC1CN1C(=S)NC[C@@H]1Cc1ccc(O)cc1)N1C[C@H](Cc2ccccc2)N(CC2CCCCCC2)C1=S (stereo partly drawn),–,"inconclusive: 20.6 µM [cytotoxic, single point]"
Cc1cc(C)nc(-n2nc(C)c3c2N(Cc2ccccc2)C(=O)CC3c2ccc(Cl)cc2)n1 (stereo not drawn),inactive: 4%,–
Cc1nc(NC(C)C)c2cnn(CCc3ccccc3)c2n1,–,"inconclusive: 29.1 µM [cytotoxic, single point]"
COc1cccc(NC(=O)/C=C/c2ccco2)c1,–,"inconclusive: 20.6 µM [cytotoxic, single point]"
CN1C(=O)/C(=C2\SC(N3CCCCCC3)=NC2=O)c2ccccc21,–,active: 2.06 µM
CN1CCN(S(=O)(=O)c2ccc(N(C)Cc3ccc(C(F)(F)F)cc3)c([N+](=O)[O-])c2)CC1,inactive: 0%,–
Cn1nc(C(C)(C)C)cc1C(=O)NCc1ccc2c(c1)OCO2,–,"inconclusive: 5.17 µM [cytotoxic, partial curve]"
COc1ccccc1N(C)S(=O)(=O)c1ccc(C(=O)NCc2ccc3c(c2)OCO3)cc1,–,"inconclusive: 4.61 µM [cytotoxic, full curve]"
COc1ccc(O)c(C(=O)CC(=O)c2ccccc2C)c1,–,"inconclusive: 29.1 µM [cytotoxic, single point]"
O=C(OCCN1CCCCC1)C1(c2ccccc2)CCCC1,–,"inconclusive: 18.4 µM [cytotoxic, partial curve, poor fit]"
CCC1=C(OC(=O)N(CC)CC)N2C(=O)OC(=NCCOC)[C@]2(Cc2ccccc2)[C@H]2C1=CC[C@H]1C(=O)N(CC(=O)OC)C(=O)[C@H]12,–,"inconclusive: 8.2 µM [rising, partial curve, poor fit]"
COc1ccc(-c2cn(-c3ccc(C)cc3)c(S(=O)(=O)CC(=O)Nc3ccc(F)cc3)n2)cc1,inactive: -14.2%,–
O=C(COc1cccc2cccnc12)N/N=C1\SCC(=O)N1CCc1ccccc1,–,"inconclusive: 8.2 µM [cytotoxic, partial curve]"
CCOC(=O)c1ccc2c(c1)N(CC(=O)N(C)c1ccccc1)C(=O)c1ccccc1S2,–,"inconclusive: 2.31 µM [cytotoxic, full curve, poor fit]"
CCOc1ccc(CCNC(=O)c2cc3c(=O)oc4ccc(C)cc4c3s2)cc1OCC,–,"inconclusive: 29.1 µM [rising, partial curve, poor fit]"
CCOC(=O)C(NC(=O)c1ccccc1)(OCC1(CC)COC1)C(F)(F)F (stereo not drawn),–,active: 18.4 µM
N#Cc1ccc(NC(=O)Cn2cnc(S(=O)(=O)N3CCCCC3)c2)cc1,–,"inconclusive: 11.6 µM [rising, partial curve, poor fit]"
O=C(O)/C=C/C(=O)NCCC1=CCCCC1,–,"inconclusive: 9.2 µM [rising, partial curve, poor fit]"
COc1ccc(S(=O)(=O)N2CCC(C(=O)NCC3CCCCC3)CC2)cc1,–,"inconclusive: 29.1 µM [cytotoxic, single point]"
COc1ccc(CCC(=O)Nc2ccc(-c3noc(-c4ccc(OC)c(OC)c4)n3)cc2)cc1,–,"inconclusive: 2.59 µM [cytotoxic, partial curve]"
COc1ccc(OC)c(NC(=O)C2(C)CCN2C(C)C)c1 (stereo not drawn),inactive: 0.867%,–
O=C(NC1=NCCS1)c1ccc(Cl)c(S(=O)(=O)N2CCOCC2)c1,–,"inconclusive: 0.0052 µM [cytotoxic, full curve, poor fit]"
